PubChem BioAssay AID1259254, NCATS – 2017
Test: 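Finding genes that stop cells copying their DNA twice in one cycle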 (primary screen). Cell system: human HCT116 colorectal cancer cells. Reagent: single siRNA against human genes. Timing: 3 days. Measurement: 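Nuclei stained with Hoechst and imaged; cell-cycle phase assigned by DNA content; G2 share scaled per plate, non-targeting siRNA 0%, GMNN siRNA 100%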. Direction: G2 robust z-score and G2 cells, % of GMNN control: higher = more G2 cells, more excess DNA replication. Active means: 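Active siRNAs have a G2 robust z of 5 or more median absolute deviations over the median, which in these data means about 38% or higher of GMNN control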.
This is one part, drawn at random, of about 59,000 deposited reagents. About 1,550 of all reagents (2.6%) count as active. 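G2 share is only a proxy for re-replication; each gene was hit by three separate siRNAs, and active genes were retested.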 Entries without a mark were called inactive. The numbers tell different reagents against one gene apart. Further read-outs or replicates are left out here. Not stated in the record: the amount of reagent.

VPREB3 (GeneID 29802) #1 gave G2 robust z-score 0.565; G2 cells, % of GMNN control 6.94.
After knock-down of VPREB3 (GeneID 29802) #2 the results were G2 robust z-score 0.316; G2 cells, % of GMNN control 5.19.
VPREB3 (GeneID 29802) #3 showed G2 robust z-score -0.728; G2 cells, % of GMNN control -2.15.
After knock-down of TMEM120B (GeneID 144404) #1 the results were G2 robust z-score -0.532; G2 cells, % of GMNN control -0.778.
TMEM120B (GeneID 144404) #2 gave G2 robust z-score -1.11; G2 cells, % of GMNN control -4.87.
After knock-down of TMEM120B (GeneID 144404) #3, the record shows G2 robust z-score 0.184; G2 cells, % of GMNN control 4.26.
Against HAO2 (GeneID 51179) #1 the deposit lists G2 robust z-score 2.12; G2 cells, % of GMNN control 17.9.
Against HAO2 (GeneID 51179) #2, the values are G2 robust z-score 0.904; G2 cells, % of GMNN control 9.33.
For HAO2 (GeneID 51179) #3, the values are G2 robust z-score 2.66; G2 cells, % of GMNN control 21.7.
NCSTN (GeneID 23385) #1 scored G2 robust z-score 1.07; G2 cells, % of GMNN control 10.5.
Silencing of NCSTN (GeneID 23385) #2 resulted in: G2 robust z-score -0.224; G2 cells, % of GMNN control 1.39.
After knock-down of NCSTN (GeneID 23385) #3 the results were G2 robust z-score -0.669; G2 cells, % of GMNN control -1.74.
With knock-down of SLC20A2 (GeneID 6575) #1, the record shows G2 robust z-score -0.0697; G2 cells, % of GMNN control 2.48.
With knock-down of SLC20A2 (GeneID 6575) #2, the record shows G2 robust z-score 0.667; G2 cells, % of GMNN control 7.66.
With knock-down of SLC20A2 (GeneID 6575) #3 the results were G2 robust z-score 0.987; G2 cells, % of GMNN control 9.91.
After knock-down of CPQ (GeneID 10404) #1, the screen gave G2 robust z-score 0.99; G2 cells, % of GMNN control 9.93.
Depletion of CPQ (GeneID 10404) #2 resulted in: G2 robust z-score -0.46; G2 cells, % of GMNN control -0.271.
CPQ (GeneID 10404) #3 scored G2 robust z-score -0.576; G2 cells, % of GMNN control -1.08.
Depletion of PLPP3 (GeneID 8613) #1 gave: G2 robust z-score 0.187; G2 cells, % of GMNN control 4.28.
Silencing of PLPP3 (GeneID 8613) #2 came out at: G2 robust z-score 3.42; G2 cells, % of GMNN control 27.
PLPP3 (GeneID 8613) #3 showed G2 robust z-score -0.547; G2 cells, % of GMNN control -0.884.
For MTHFD2 (GeneID 10797) #1, the values are G2 robust z-score -1.55; G2 cells, % of GMNN control -7.92.
Against MTHFD2 (GeneID 10797) #2, the values are G2 robust z-score -0.307; G2 cells, % of GMNN control 0.807.
Depletion of MTHFD2 (GeneID 10797) #3 gave: G2 robust z-score -0.456; G2 cells, % of GMNN control -0.244.
STRBP (GeneID 55342) #1 showed G2 robust z-score 0.002; G2 cells, % of GMNN control 2.98.
For STRBP (GeneID 55342) #2, the values are G2 robust z-score -0.232; G2 cells, % of GMNN control 1.34.
STRBP (GeneID 55342) #3 gave G2 robust z-score -1.24; G2 cells, % of GMNN control -5.78.
ZNF845 (GeneID 91664) #1 gave G2 robust z-score -0.101; G2 cells, % of GMNN control 2.26.
Silencing of ZNF845 (GeneID 91664) #2 gave: G2 robust z-score -0.853; G2 cells, % of GMNN control -3.03.
Against ZNF845 (GeneID 91664) #3, the entry reads G2 robust z-score 0.586; G2 cells, % of GMNN control 7.09.

Copied from the entries so far (2 entries):
STRBP (GeneID 55342) #2 → G2 robust z-score = -0.232; G2 cells, % of GMNN control = 1.34
STRBP (GeneID 55342) #3 → G2 robust z-score = -1.24; G2 cells, % of GMNN control = -5.78
